Values from PubChem BioAssay AID1259286 (Sanger Institute, 2017)

Assay: 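Kinase knock-downs that reduce colorectal cancer cell viability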 (primary screen)
Cell system: NCI-H630 human colorectal cancer cells
Reagents: siRNA pool against human genes
Challenge: anchor drugs BYL719 at 1 µM, cetuximab at 5 µg/ml or trametinib at 10 nM, or DMSO vehicle alone; exposure time not given
Measured: 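Viability relative to non-targeting pool wells, averaged over replicates, with robust z-score for knock-down alone and a synergy score for each anchor drug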
Direction: viability z-score, knock-down alone: higher = more viable cells, weaker knock-down effect; viability vs control, knock-down alone: higher = more viable cells; synergy score with trametinib: higher = stronger synergistic killing with trametinib; synergy score with BYL719: higher = stronger synergistic killing with BYL719; synergy score with cetuximab: higher = stronger synergistic killing with cetuximab
Call rule: 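a gene is called essential when its knock-down-alone viability robust z-score is below -3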
Calls: active = essential when knocked down alone; inactive = not essential alone
This is an unselected part of 794 deposited reagents. 17 of them (2.1%) were called active. 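Calls use knock-down alone only; synergy above 0.15 marked separately; viability seems capped at control level; exposure time not given.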 The record does not give: the amount of reagent, the time to read-out.

no.	gene symbol	viability z-score, knock-down alone	viability vs control, knock-down alone (fraction of control)	synergy score with trametinib	synergy score with BYL719	synergy score with cetuximab	outcome
1	CDADC1 (cytidine and dCMP deaminase domain containing 1)	0.464	1	-0.0335	-0.04	0.0902	inactive
2	ITPK1 (inositol-tetrakisphosphate 1-kinase)	0.464	1	-0.0335	-0.0287	0.00358	inactive
3	LIMK2 (LIM domain kinase 2)	0.464	1	-0.0479	0.0419	0.00619	inactive
4	SRGAP3 (SLIT-ROBO Rho GTPase activating protein 3)	0.464	1	-0.0479	-0.0814	-0.0529	inactive
5	LMTK3 (lemur tail kinase 3)	-0.188	0.975	-0.0444	-0.104	-0.116	inactive
6	MARK2 (microtubule affinity regulating kinase 2)	0.262	0.992	-0.0146	0.0781	0.0924	inactive
7	TAOK1 (TAO kinase 1)	0.464	1	-0.0479	-0.00462	0.0677	inactive
8	GRK3 (G protein-coupled receptor kinase 3)	0.464	1	-0.0479	-0.0511	-0.0907	inactive
9	CKMT2 (creatine kinase, mitochondrial 2)	0.337	0.995	-0.0255	0.0341	-0.00561	inactive
10	PIM1 (Pim-1 proto-oncogene, serine/threonine kinase)	0.464	1	-0.0479	0.0446	-0.00482	inactive
11	PCK2 (phosphoenolpyruvate carboxykinase 2, mitochondrial)	0.464	1	-0.00855	-0.0814	0.0342	inactive
12	PIP5KL1 (phosphatidylinositol-4-phosphate 5-kinase like 1)	0.464	1	-0.0479	-0.00556	0.0603	inactive
13	TWF2 (twinfilin actin binding protein 2)	0.464	1	-0.0479	-0.00625	-0.0165	inactive
14	RAD21 (RAD21 cohesin complex component)	-1.37	0.931	-0.0172	-0.01	0.0146	inactive
15	STK25 (serine/threonine kinase 25)	-0.528	0.962	-0.00237	0.0497	0.0275	inactive
16	SIK1 (salt inducible kinase 1)	0.464	1	-0.0479	-0.0295	0.0633	inactive
17	DGKI (diacylglycerol kinase iota)	0.119	0.987	-0.0532	-0.0713	0.0487	inactive
18	BTK (Bruton tyrosine kinase)	0.464	1	-0.0479	-0.0812	0.0342	inactive
19	PTGS1 (prostaglandin-endoperoxide synthase 1)	0.464	1	0.00773	0.00442	0.107	inactive
20	FGFRL1 (fibroblast growth factor receptor like 1)	-1.26	0.935	-0.0873	-0.106	-0.00797	inactive
21	MAPK14 (mitogen-activated protein kinase 14)	0.353	0.996	-0.0519	-0.0853	0.115	inactive
22	WNK4 (WNK lysine deficient protein kinase 4)	0.464	1	0.00261	-0.0167	-0.0209	inactive
23	MAP2K5 (mitogen-activated protein kinase kinase 5)	0.464	1	-0.0465	-0.0814	-0.0583	inactive
24	PKIA (cAMP-dependent protein kinase inhibitor alpha)	0.464	1	0.0492	-0.00999	0.0198	inactive
25	IPMK (inositol polyphosphate multikinase)	0.464	1	-0.0479	-0.0247	-0.0121	inactive
26	ERN1 (endoplasmic reticulum to nucleus signaling 1)	0.464	1	-0.0408	-0.0388	0.0239	inactive
27	SRPK3 (SRSF protein kinase 3)	0.464	1	-0.0102	-0.0178	0.00114	inactive
28	HCK (HCK proto-oncogene, Src family tyrosine kinase)	0.464	1	-0.0072	0.0528	0.0859	inactive
29	RFK (riboflavin kinase)	0.464	1	-0.0024	-0.0617	0.0294	inactive
30	PGK2 (phosphoglycerate kinase 2)	0.464	1	-0.0479	-0.0752	-0.0223	inactive
31	ITSN1 (intersectin 1)	0.464	1	-0.0227	-0.0261	0.0973	inactive
32	PDK4 (pyruvate dehydrogenase kinase 4)	0.464	1	-0.0479	-0.0304	0.000137	inactive
33	MAPK3 (mitogen-activated protein kinase 3)	0.464	1	-0.0479	0.0658	0.1	inactive
34	SRPK2 (SRSF protein kinase 2)	0.464	1	-0.0479	-0.00547	0.0636	inactive
35	INSR (insulin receptor)	-0.237	0.973	-0.0731	-0.106	-0.144	inactive
36	ALK (ALK receptor tyrosine kinase)	0.464	1	-0.0331	0.018	0.0353	inactive
37	STK17B (serine/threonine kinase 17b)	-5.74	0.765	-0.271	-0.297	-0.168	active
38	PANK3 (pantothenate kinase 3)	0.464	1	-0.0479	-0.0814	0.0114	inactive
39	PKN1 (protein kinase N1)	0.464	1	-0.0479	-0.0814	-0.034	inactive
40	PIK3CA	0.464	1	-0.0479	-0.0814	0.00924	inactive
41	EIF2AK4 (eukaryotic translation initiation factor 2 alpha kinase 4)	-2.84	0.875	-0.167	-0.192	-0.0424	inactive
42	RIPK3 (receptor interacting serine/threonine kinase 3)	-1.18	0.938	0.00151	-0.0552	-0.0166	inactive
43	TSSK1B (testis specific serine kinase 1B)	-1.04	0.943	-0.0547	-0.105	0.00603	inactive
44	PI4KA (phosphatidylinositol 4-kinase alpha)	0.464	1	-0.0479	-0.0814	-0.0699	inactive
45	CKS1B (CDC28 protein kinase regulatory subunit 1B)	0.464	1	-0.0479	0.0316	0.0246	inactive
46	AAK1 (AP2 associated kinase 1)	0.464	1	-0.0479	0.0835	0.113	inactive
47	NME4 (NME/NM23 nucleoside diphosphate kinase 4)	0.464	1	-0.00557	-0.0814	-0.013	inactive
48	EIF2AK3 (eukaryotic translation initiation factor 2 alpha kinase 3)	0.45	0.999	-0.0286	-0.0491	0.0946	inactive
49	PIK3C2A	0.464	1	0.0438	0.0212	0.0389	inactive
50	KRAS (KRas proto-oncogene, GTPase)	0.464	1	0.105	0.145	0.192	inactive

Just “synergy score with BYL719” (6 entries from above):
MAP2K5 (mitogen-activated protein kinase kinase 5) = -0.0814
PKIA (cAMP-dependent protein kinase inhibitor alpha) = -0.00999
IPMK (inositol polyphosphate multikinase) = -0.0247
ERN1 (endoplasmic reticulum to nucleus signaling 1) = -0.0388
SRPK3 (SRSF protein kinase 3) = -0.0178
HCK (HCK proto-oncogene, Src family tyrosine kinase) = 0.0528
